Assay results from paper PMC3945201.
No constants are given. Whether binding was seen depends on the method and setting. In cells and extracts the contact can be indirect. Some binding calls cover weakened binding; strength is not graded here. Tags and fused reporters may be left off the sequences shown.

Molecular target: T1, Fun12-TAP (TAP-tagged Fun12, the yeast homologue of eIF5B) (S. cerevisiae) (UniProt P39730)
T1 sequence: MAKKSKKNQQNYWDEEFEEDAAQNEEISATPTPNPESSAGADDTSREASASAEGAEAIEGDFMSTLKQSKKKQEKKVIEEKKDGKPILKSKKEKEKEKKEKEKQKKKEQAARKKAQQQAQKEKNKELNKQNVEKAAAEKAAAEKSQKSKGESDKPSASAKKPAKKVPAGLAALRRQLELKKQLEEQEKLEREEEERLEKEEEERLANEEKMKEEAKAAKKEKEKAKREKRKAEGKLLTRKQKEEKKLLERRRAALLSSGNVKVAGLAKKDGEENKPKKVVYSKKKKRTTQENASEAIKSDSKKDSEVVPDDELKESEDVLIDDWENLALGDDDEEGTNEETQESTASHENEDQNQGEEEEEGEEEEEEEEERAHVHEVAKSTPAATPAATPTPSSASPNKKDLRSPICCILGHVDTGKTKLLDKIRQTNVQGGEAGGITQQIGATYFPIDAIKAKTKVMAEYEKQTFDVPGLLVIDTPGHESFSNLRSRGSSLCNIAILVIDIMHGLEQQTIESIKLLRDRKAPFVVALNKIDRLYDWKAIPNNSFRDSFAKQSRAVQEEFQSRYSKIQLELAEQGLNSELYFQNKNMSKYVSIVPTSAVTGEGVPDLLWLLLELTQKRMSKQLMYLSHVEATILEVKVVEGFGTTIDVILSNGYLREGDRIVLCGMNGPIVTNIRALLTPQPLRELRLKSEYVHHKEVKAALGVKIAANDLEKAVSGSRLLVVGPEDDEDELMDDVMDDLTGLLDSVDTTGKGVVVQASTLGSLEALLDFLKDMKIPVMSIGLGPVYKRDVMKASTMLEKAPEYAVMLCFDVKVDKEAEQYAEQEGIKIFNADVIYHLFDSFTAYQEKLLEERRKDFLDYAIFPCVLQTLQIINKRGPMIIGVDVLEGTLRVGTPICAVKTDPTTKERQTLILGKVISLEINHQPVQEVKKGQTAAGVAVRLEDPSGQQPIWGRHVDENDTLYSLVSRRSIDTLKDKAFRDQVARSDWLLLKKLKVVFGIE
Assay: co-IP; Fun12-TAP precipitated with IgG-Sepharose from total extracts of wild-type and rpl3[W255C] cells grown at 23°C in YPD to mid-log phase; immunoprecipitates analysed by SDS-PAGE and Western blotting with specific antibodies

binding: binds
B1: Nob1 (enzyme, UniProt Q08444 1-459)
chain: MTENQTAHVRALILDATPLITQSYTHYQNYAQSFYTTPTVFQEIKDAQARKNLEIWQSLGTLKLVHPSENSIAKVSTFAKLTGDYSVLSANDLHILALTYELEIKLNNGDWRLRKKPGDALDASKADVGTDGKQKLTEDNKKEEDSESVPKKKNKRRGGKKQKAKREAREAREAENANLELESKAEEHVEEAGSKEQICNDENIKESSDLNEVFEDADDDGDWITPENLTEAIIKDSGEDTTGSLGVEASEEDRHVALNRPENQVALATGDFAVQNVALQMNLNLMNFMSGLKIKRIRNYMLRCHACFKIFPLPKDGKPKHFCASCGGQGTLLRCAVSVDSRTGNVTPHLKSNFQWNNRGNRYSVASPLSKNSQKRYGKKGHVHSKPQENVILREDQKEYEKVIKQEEWTRRHNEKILNNWIGGGSADNYISPFAITGLKQHNVRIGKGRYVNSSKRRS
